# From article PMC7819943, “Rice protein-binding microarrays: a tool to detect cis-acting elements near promoter regions in rice”
# Amino acid sequences for entries named in this document (tags omitted).
# UniProt Q0JBA9, entry or part of it: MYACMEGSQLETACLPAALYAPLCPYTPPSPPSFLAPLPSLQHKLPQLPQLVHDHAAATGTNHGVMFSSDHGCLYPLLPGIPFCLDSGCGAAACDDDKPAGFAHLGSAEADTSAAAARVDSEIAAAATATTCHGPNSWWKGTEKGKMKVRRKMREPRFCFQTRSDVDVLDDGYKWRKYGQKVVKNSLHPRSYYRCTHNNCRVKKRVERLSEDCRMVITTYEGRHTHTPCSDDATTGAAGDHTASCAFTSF
# The other results are listed elsewhere or left out.
# Molecular target: OsWRKY34 (Oryza sativa, UniProt Q0JBA9 1-250)
# Assay: protein-binding microarray (RPBM); PBS, 2% BSA, 51.3 ng/ul salmon testes DNA, 50 uM zinc acetate, 200 nM TF, 25 C, 1 h; high values mean tight binding
# Conditions: protein: recombinant; tags: N-terminal polyhistidine and DsRed monomer fusion (pET32a); label: CyDye5-dUTP incorporated in the synthesized complementary strand; 3' TTTTT single-stranded linker to array surface; dsDNA, one strand shown
# Summary of the method: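 Transcription factors were each fused at the N-terminus to a polyhistidine tag plus DsRed and expressed in E. coli BL21-CodonPlus before Ni–NTA purification. Binding to a double-stranded custom Agilent array was carried out with 200 nM protein at 25 °C for 1 h in PBS, 2% BSA, salmon testes DNA and 50 µM zinc acetate. The binding signal is per-feature fluorescence intensity, in arbitrary units, on an Axon 4000B scanner.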
row,Sequence,binding signal
1,GGCTGTTGTTTTTCCTTGTTATTCTTTCAGTAAGATATTTCGGAGTCACCTAGTGCAG,12800 fluorescence intensity (a.u.)
2,GTATTACTTATAGGGTGTTTGCATGTTTCAATTGTTTTAACGGAGTCACCTAGTGCAG,8120 fluorescence intensity (a.u.)
3,GCTAGGGTTGCGCTGCTTCGGTCTCGGTCTTGGCGCCGCCCGGAGTCACCTAGTGCAG,8110 fluorescence intensity (a.u.)
4,TGCATTAATTGCTTCCATATCTGGGGTTCAAACTGATATCCGGAGTCACCTAGTGCAG,8800 fluorescence intensity (a.u.)
5,GAAGTGTCGAACTCAACCTCGTCTCTCAGTCTCCGTCACTCGGAGTCACCTAGTGCAG,10500 fluorescence intensity (a.u.)
6,CACCAGTAATATCGTACAGTACTACTCCAACATGTCACCACGGAGTCACCTAGTGCAG,8550 fluorescence intensity (a.u.)
7,TTTGGTTGGGGCGATCTTTCTGGGCTGGGCCGCAAGTTCACGGAGTCACCTAGTGCAG,10700 fluorescence intensity (a.u.)
8,CATCGCCTCCGCTTCTGCTTTTTTTTTTCTTTTTTCTCGTCGGAGTCACCTAGTGCAG,10200 fluorescence intensity (a.u.)
9,CATCAATAACAAATGTTTACTGTAGCACAATATTGCTAAACGGAGTCACCTAGTGCAG,8580 fluorescence intensity (a.u.)
10,GAATTACCAATTTGACCATACTTTTTCAGGTTTGCTTATTCGGAGTCACCTAGTGCAG,9600 fluorescence intensity (a.u.)
11,CGCCCGCTGCATGCCACCTATGTCTGCGTTATTGCTTCTCCGGAGTCACCTAGTGCAG,8440 fluorescence intensity (a.u.)
12,ATCCAATGGTATAATTTTTTTAGGGAAGGGTTTTTTTTTCCGGAGTCACCTAGTGCAG,12600 fluorescence intensity (a.u.)
13,CCTCCTCTCTCTCTCGCTCACACTCTCTCTCTTCTCTCTACGGAGTCACCTAGTGCAG,11400 fluorescence intensity (a.u.)
14,CTCCATAACAGCACCATCTTTGCTTCCTTGCCGGTTAGAGCGGAGTCACCTAGTGCAG,8060 fluorescence intensity (a.u.)
15,CGGAGGTTCGTTCTTGTTGTTGCATGTATGTTCATCATCACGGAGTCACCTAGTGCAG,12900 fluorescence intensity (a.u.)
16,ACTTCGACAGCTTCACCACCTTCGTTTACCCATTGCCATGCGGAGTCACCTAGTGCAG,10100 fluorescence intensity (a.u.)
17,GAGTTTGGACCTGACATTCCTGCCACGTCGGCTAGGCGATCGGAGTCACCTAGTGCAG,9280 fluorescence intensity (a.u.)
18,GTTTGCTTGGGGATTAGGACTTCTTGTACAAGGTTGGTTCCGGAGTCACCTAGTGCAG,8530 fluorescence intensity (a.u.)
19,CCTTTGCTTGACTTTTTCGGGCCATATCGCTCAAAACCGTCGGAGTCACCTAGTGCAG,10100 fluorescence intensity (a.u.)
20,TTTACATGGTTGGGTTCTTGTGTATGTGGCGGAAAGAGGGCGGAGTCACCTAGTGCAG,8060 fluorescence intensity (a.u.)
21,CTGTTACATTGTTCCAATTTCAACCAAACTTCTATTTTCACGGAGTCACCTAGTGCAG,8740 fluorescence intensity (a.u.)
22,ACACCACTTGCCTAGTCATCAACACATCAAAAATATTCATCGGAGTCACCTAGTGCAG,8800 fluorescence intensity (a.u.)
23,ACCGCCACCACCTTTGCCAGGCAACCACTGGCCATGAGAGCGGAGTCACCTAGTGCAG,8510 fluorescence intensity (a.u.)
24,TGTTGGTTCCATCTTATCTCATCACCTGTCCTATATCTAGCGGAGTCACCTAGTGCAG,9560 fluorescence intensity (a.u.)
25,TCCCATAGATTCTCTCCGAACTTCACACACGCCATAACCCCGGAGTCACCTAGTGCAG,8620 fluorescence intensity (a.u.)
26,TTTTAATACTGTTTGAAACTATTTTACACTGTTCACACAACGGAGTCACCTAGTGCAG,8100 fluorescence intensity (a.u.)
27,TGTCCACCGCCGACGGTCGTCGCCGCCCGTCGCCGCTCTACGGAGTCACCTAGTGCAG,9160 fluorescence intensity (a.u.)

row,Sequence,binding signal
1,CCCCATTTCATATTATAAGTTGTTTGACTTTTTTCTTGGTCGGAGTCACCTAGTGCAG,14700 fluorescence intensity (a.u.)
2,ATTATACGTTTGCTACTAATTTATACATGATGTTCATATTCGGAGTCACCTAGTGCAG,8880 fluorescence intensity (a.u.)
3,GCTGCCGTCACTGCTCTGCTATGGTCATGCTTGAATTATCCGGAGTCACCTAGTGCAG,9380 fluorescence intensity (a.u.)
4,AACATGAGCTGCTTCCAACATATCCTCGGTCCAGCCGTCTCGGAGTCACCTAGTGCAG,10000 fluorescence intensity (a.u.)
5,CGGCACTACAAAATTCCATTTTCTTATTAGTACTTTTTAACGGAGTCACCTAGTGCAG,8660 fluorescence intensity (a.u.)
6,AGCCGATTGCCTTTATATCATCATCTACATTGGACATATACGGAGTCACCTAGTGCAG,10400 fluorescence intensity (a.u.)
7,ATGTGCCGATGTATTTGACTTACTGTCCCTGGTAATGAAACGGAGTCACCTAGTGCAG,8510 fluorescence intensity (a.u.)
8,TTGGCTTGTTGTTCATAGTTCCTACCAATTGCGTGTCCTCCGGAGTCACCTAGTGCAG,9590 fluorescence intensity (a.u.)
9,AGTAGACCAAGTGTTTGAGTGTGACAATATTTCTTTCTTCCGGAGTCACCTAGTGCAG,9150 fluorescence intensity (a.u.)
10,GGACCTACTTTCGCGATTTTCCCCGGTTGGCCACTACTTTCGGAGTCACCTAGTGCAG,18800 fluorescence intensity (a.u.)
11,TACTCCCTCCGTTTCATAATATATGTCTAGGTTCATTAACCGGAGTCACCTAGTGCAG,8350 fluorescence intensity (a.u.)
12,ACCACATGTATCAGCTCATGCTGAATCCGCCCAAAATAACCGGAGTCACCTAGTGCAG,8620 fluorescence intensity (a.u.)
13,TAATCTTTCCTTTGTACCACTGTGCCGTCGACCTGCCAGCCGGAGTCACCTAGTGCAG,8920 fluorescence intensity (a.u.)
14,TTTTGAGATGCTTCACCTTCACTGCTTGTCCTCATCGATTCGGAGTCACCTAGTGCAG,9910 fluorescence intensity (a.u.)
15,GCTCTCTCTCTCTCTCTCTCTCCATTTTTTTCTTATTTTTCGGAGTCACCTAGTGCAG,8490 fluorescence intensity (a.u.)
16,TTAGATCCTCCTCGTGGTCCTGCCGTCCGTCCCAACTTCGCGGAGTCACCTAGTGCAG,8450 fluorescence intensity (a.u.)
17,AGTCAGTCCACACTCCACACCAGTCTCCATCACAGTTTCCCGGAGTCACCTAGTGCAG,11200 fluorescence intensity (a.u.)
18,TATCCCATCGGTCAGACCGCACGCACACCTGCGGTTAGACCGGAGTCACCTAGTGCAG,8170 fluorescence intensity (a.u.)
19,AAACCCTGGTAGTATCTATCTATACTCTACCTATCTTTTTCGGAGTCACCTAGTGCAG,8410 fluorescence intensity (a.u.)
20,TATCCTTCTTATTTGCGTCCCTACAAATTTACTCTGACAACGGAGTCACCTAGTGCAG,12900 fluorescence intensity (a.u.)
21,GTCTGGCTATCTTCGGTTCCTCGTCTATTGGTCTATTTGACGGAGTCACCTAGTGCAG,10600 fluorescence intensity (a.u.)
22,CGTCTACCAACCACTGTGCTGTCGCCATCGTCCAGCCGCTCGGAGTCACCTAGTGCAG,10100 fluorescence intensity (a.u.)
23,GAGAAAACAAGTGCCAAGTGTTTCCACTTACCCATTCTACCGGAGTCACCTAGTGCAG,8680 fluorescence intensity (a.u.)
24,GGTAAAATAGACTTATTCCTCTACTTTTATCATGACTTGCCGGAGTCACCTAGTGCAG,9520 fluorescence intensity (a.u.)
25,GGGGCACAGGCCACCTCGCCCAAATTGCGTCGCTGCCGTCCGGAGTCACCTAGTGCAG,8990 fluorescence intensity (a.u.)
26,GGCCTGTGTGGAGTTAAGTATATTTAAGGTTAGGGGCAGTCGGAGTCACCTAGTGCAG,8670 fluorescence intensity (a.u.)
27,ATAGTGTTTAATTACAAATTGTCTGTCATCCCTGTCTGAACGGAGTCACCTAGTGCAG,10500 fluorescence intensity (a.u.)

# Copied from the list.
# binding signal, GGCCTGTGTGGAGTTAAGTATATTTAAGGTTAGGGGCAGTCGGAGTCACCTAGTGCAG is entered as 8670 fluorescence intensity (a.u.)
# binding signal, GGGGCACAGGCCACCTCGCCCAAATTGCGTCGCTGCCGTCCGGAGTCACCTAGTGCAG is entered as 8990 fluorescence intensity (a.u.)
# binding signal, GCTGCCGTCACTGCTCTGCTATGGTCATGCTTGAATTATCCGGAGTCACCTAGTGCAG is entered as 9380 fluorescence intensity (a.u.)
# binding signal, ATGTGCCGATGTATTTGACTTACTGTCCCTGGTAATGAAACGGAGTCACCTAGTGCAG is entered as 8510 fluorescence intensity (a.u.)
